According to the supplement of paper PMC12024529:
Where a name gives a salt, the structure may show the parent alone. This is one part of the list. Plates or batches differ in their baseline, so values are only roughly comparable.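 The cells are HEK293 lines stably expressing B-domain-deleted factor VIII fused to Gaussia luciferase, either wild type or a misfolding-prone missense mutant. Each score is mean luminescence from triplicate wells minus the DMSO mean, divided by the DMSO standard deviation; a score of 2 or more counts as a hit, and low scores may reflect lower secretion or poorer cell viability.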

How the values were obtained:
HEK293 WT BDD-FVIII-Gluc = test: secreted FVIII-Gluc luciferase Z-score vs DMSO control; higher = more FVIII-Gluc secretion; conditions: 5 µM; 24 h
[1] = tested on: HEK293 p.N1941S BDD-FVIII-Gluc; test: as above; conditions: 5 µM; 24 h

| SMILES | secreted FVIII-Gluc luciferase Z-score (HEK293 WT BDD-FVIII-Gluc) | secreted FVIII-Gluc luciferase Z-score [1] |
| --- | --- | --- |
| C[N+]1(C)CCCC(OC(=O)C(O)(c2ccccc2)c2ccccc2)C1 (stereo unspecified) [Mepenzolate Bromide] | inactive: -0.212 | inactive: 0.99 |
| CN1C2CC(O)CC1C1OC12 (stereo unspecified) [Scopine] | inactive: 1.1 | inactive: -0.319 |
| CCC(COC(=O)c1cc(OC)c(OC)c(OC)c1)(c1ccccc1)N(C)C (stereo unspecified) [Trimebutine] | inactive: 0.844 | inactive: -0.591 |
| CCN(C)C(=O)Oc1cccc([C@H](C)N(C)C)c1 [Rivastigmine tartrate (Exelon)] | inactive: 0.166 | inactive: 0.909 |
| Nc1nc(N)nc(NC2CC2)n1 [Cyromazine] | inactive: -1.82 | inactive: 1.55 |
| CN(C)[C@@H]1C(=O)C(C(N)=O)=C(O)[C@@]2(O)C(=O)C3=C(O)c4c(O)cccc4[C@@](C)(O)[C@H]3[C@H](O)[C@@H]12 [Oxytetracycline (Terramycin)] | inactive: 0.93 | inactive: -3.1 |
| Cc1c(N)nc(C(CC(N)=O)NCC(N)C(N)=O)nc1C(=O)NC(C(=O)NC(C)C(O)C(C)C(=O)NC(C(=O)NCCc1nc(-c2nc(C(=O)NCCC[S+](C)C)cs2)cs1)C(C)O)C(O[C@@H]1O[C@@H](CO)[C@@H](O)[C@H](O)[C@@H]1O[C@H]1O[C@H](CO)[C@@H](O)[C@H](OC(N)=O)[C@@H]1O)c1cnc[nH]1 (stereo partly specified) [Bleomycin sulfate] | inactive: -3.58 | inactive: -11.1 |
| OC(c1ccccc1)(c1ccccc1)C1CCNCC1 [Azacyclonol] | inactive: 0.0867 | inactive: -2.85 |

A second format for part of the listing above.
SMILES	secreted FVIII-Gluc luciferase Z-score (HEK293 WT BDD-FVIII-Gluc)	secreted FVIII-Gluc luciferase Z-score [1]
CCC(COC(=O)c1cc(OC)c(OC)c(OC)c1)(c1ccccc1)N(C)C (stereo unspecified) [Trimebutine]	inactive: 0.844	inactive: -0.591
CCN(C)C(=O)Oc1cccc([C@H](C)N(C)C)c1 [Rivastigmine tartrate (Exelon)]	inactive: 0.166	inactive: 0.909
